Experimental data as given in PMC7392027.
No constants are given. Whether binding was seen depends on the method and setting. Binding seen in cells or lysates may run through a third protein. Some results given as binding are weak or reduced against the parent protein; the word gives no strength. Tags and fused reporters may be left off the sequences shown.

The chains behind the UniProt entries cited, without tags or fusion partners.
UniProt P09651: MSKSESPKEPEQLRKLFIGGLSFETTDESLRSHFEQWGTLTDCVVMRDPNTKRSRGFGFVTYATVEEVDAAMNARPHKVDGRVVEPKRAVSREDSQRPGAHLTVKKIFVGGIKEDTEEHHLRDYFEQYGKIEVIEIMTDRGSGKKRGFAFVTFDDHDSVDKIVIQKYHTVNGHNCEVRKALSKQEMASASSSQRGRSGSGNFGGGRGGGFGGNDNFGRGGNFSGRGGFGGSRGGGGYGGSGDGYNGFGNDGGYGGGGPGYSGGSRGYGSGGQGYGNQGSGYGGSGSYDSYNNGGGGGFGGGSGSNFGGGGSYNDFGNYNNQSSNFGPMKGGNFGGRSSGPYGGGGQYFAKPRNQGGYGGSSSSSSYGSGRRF

Molecular target: hnRNP A1-HA (UniProt P09651)
Test: co-IP; ZFP91-Flag and hnRNP A1-HA plasmids transfected into HCC cells (MHCC-LM3: anti-Flag IP; SK-hep1: anti-HA IP), 48 h; protein A/G agarose beads; Western blot

- binding: binds
B1: ZFP91-Flag (enzyme, UniProt Q96JP5 1-570)
chain: MPGETEEPRPPEQQDQEGGEAAKAAPEEPQQRPPEAVAAAPAGTTSSRVLRGGRDRGRAAAAAAAAAVSRRRKAEYPRRRRSSPSARPPDVPGQQPQAAKSPSPVQGKKSPRLLCIEKVTTDKDPKEEKEEEDDSALPQEVSIAASRPSRGWRSSRTSVSRHRDTENTRSSRSKTGSLQLICKSEPNTDQLDYDVGEEHQSPGGISSEEEEEEEEEMLISEEEIPFKDDPRDETYKPHLERETPKPRRKSGKVKEEKEKKEIKVEVEVEVKEEENEIREDEEPPRKRGRRRKDDKSPRLPKRRKKPPIQYVRCEMEGCGTVLAHPRYLQHHIKYQHLLKKKYVCPHPSCGRLFRLQKQLLRHAKHHTDQRDYICEYCARAFKSSHNLAVHRMIHTGEKPLQCEICGFTCRQKASLNWHMKKHDADSFYQFSCNICGKKFEKKDSVVAHKAKSHPEVLIAEALAANAGALITSTDILGTNPESLTQPSDGQGLPLLPEPLGNSTSGECLLLEAEGMSKSYCSGTERVSLMADGKIFVGSGSSGGTEGLVMNSDILGATTEVLIEDSDSAGP
